No constants are given. Whether binding was seen depends on the method and setting. In cells and extracts the contact can be indirect. Some entries that bind do so weakly or less than the wild type. Each block holds one substance with its values, some of them ahead of it.
Assays:
[1] = biological target: HA-PFN1 (wild type profilin-1) (human) (UniProt P07737); assay: proximity ligation; Duolink PLA in HA-PFN1-transfected HeLa cells, anti-HA with anti-SNF2H or anti-BOD1L, detergent-extracted and fixed cells, foci per nucleus (>5 positive); also after HU treatment
YFP-NLS-PFN1 (human) = YFP-NLS-PFN1 (human) (UniProt P07737); assay: co-IP; anti-GFP immunoprecipitation from RIPA lysates of MCF-7 cells expressing YFP or YFP-NLS-PFN1, Benzonase in lysate, Dynabeads protein G, 4 °C, Western blot for SNF2H
[2] = biological target: HA-PFN1 (wild type profilin-1) (human) (UniProt P07737); assay: co-IP; anti-HA immunoprecipitation from RIPA lysates of transfected HEK293T cells, 250 U/ml Benzonase and 1.5 mM MgCl2 in lysate, Dynabeads protein G, 4 °C, Western blot for SNF2H
[3] = biological target: endogenous SNF2H/SMARCA5 (human (endogenous in MCF-7, MCF-10A, HeLa)) (UniProt O60264); assay: co-IP; anti-SNF2H immunoprecipitation from RIPA lysates of parental MCF-10A cells, control mouse IgG, Benzonase in lysate, Dynabeads protein G, 4 °C, Western blot

Protein sequences, listed by entry. Tags and fused reporters are not part of them.
UniProt P07737: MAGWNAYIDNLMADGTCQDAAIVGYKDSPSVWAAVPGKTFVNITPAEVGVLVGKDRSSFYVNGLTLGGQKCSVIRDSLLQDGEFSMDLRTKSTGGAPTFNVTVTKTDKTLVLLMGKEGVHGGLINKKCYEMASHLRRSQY
UniProt O60264: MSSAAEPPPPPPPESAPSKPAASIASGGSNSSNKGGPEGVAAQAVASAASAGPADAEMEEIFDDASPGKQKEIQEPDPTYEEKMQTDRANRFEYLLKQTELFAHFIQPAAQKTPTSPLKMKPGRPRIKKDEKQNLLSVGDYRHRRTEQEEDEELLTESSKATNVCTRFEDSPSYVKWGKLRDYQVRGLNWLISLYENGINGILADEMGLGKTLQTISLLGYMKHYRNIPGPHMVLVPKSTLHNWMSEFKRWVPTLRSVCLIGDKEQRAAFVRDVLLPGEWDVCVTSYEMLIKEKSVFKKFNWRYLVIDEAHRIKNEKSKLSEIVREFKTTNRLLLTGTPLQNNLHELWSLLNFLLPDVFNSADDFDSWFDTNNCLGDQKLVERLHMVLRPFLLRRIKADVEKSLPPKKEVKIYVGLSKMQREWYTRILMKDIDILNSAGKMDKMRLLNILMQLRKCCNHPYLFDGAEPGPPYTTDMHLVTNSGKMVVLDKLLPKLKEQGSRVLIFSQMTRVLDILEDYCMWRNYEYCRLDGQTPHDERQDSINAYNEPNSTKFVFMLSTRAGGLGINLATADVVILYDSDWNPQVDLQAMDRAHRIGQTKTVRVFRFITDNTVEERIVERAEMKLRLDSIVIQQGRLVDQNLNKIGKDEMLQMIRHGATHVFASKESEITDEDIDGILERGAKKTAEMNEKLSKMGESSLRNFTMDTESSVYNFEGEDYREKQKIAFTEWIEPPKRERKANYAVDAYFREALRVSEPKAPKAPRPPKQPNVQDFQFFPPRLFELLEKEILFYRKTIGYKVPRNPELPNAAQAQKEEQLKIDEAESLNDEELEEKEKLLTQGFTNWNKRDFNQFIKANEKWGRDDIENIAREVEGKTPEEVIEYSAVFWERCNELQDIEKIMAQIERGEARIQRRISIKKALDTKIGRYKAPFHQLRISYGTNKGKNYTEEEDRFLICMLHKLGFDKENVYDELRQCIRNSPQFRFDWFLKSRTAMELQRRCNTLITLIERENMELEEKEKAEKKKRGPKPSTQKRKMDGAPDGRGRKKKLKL
UniProt Q8NFC6: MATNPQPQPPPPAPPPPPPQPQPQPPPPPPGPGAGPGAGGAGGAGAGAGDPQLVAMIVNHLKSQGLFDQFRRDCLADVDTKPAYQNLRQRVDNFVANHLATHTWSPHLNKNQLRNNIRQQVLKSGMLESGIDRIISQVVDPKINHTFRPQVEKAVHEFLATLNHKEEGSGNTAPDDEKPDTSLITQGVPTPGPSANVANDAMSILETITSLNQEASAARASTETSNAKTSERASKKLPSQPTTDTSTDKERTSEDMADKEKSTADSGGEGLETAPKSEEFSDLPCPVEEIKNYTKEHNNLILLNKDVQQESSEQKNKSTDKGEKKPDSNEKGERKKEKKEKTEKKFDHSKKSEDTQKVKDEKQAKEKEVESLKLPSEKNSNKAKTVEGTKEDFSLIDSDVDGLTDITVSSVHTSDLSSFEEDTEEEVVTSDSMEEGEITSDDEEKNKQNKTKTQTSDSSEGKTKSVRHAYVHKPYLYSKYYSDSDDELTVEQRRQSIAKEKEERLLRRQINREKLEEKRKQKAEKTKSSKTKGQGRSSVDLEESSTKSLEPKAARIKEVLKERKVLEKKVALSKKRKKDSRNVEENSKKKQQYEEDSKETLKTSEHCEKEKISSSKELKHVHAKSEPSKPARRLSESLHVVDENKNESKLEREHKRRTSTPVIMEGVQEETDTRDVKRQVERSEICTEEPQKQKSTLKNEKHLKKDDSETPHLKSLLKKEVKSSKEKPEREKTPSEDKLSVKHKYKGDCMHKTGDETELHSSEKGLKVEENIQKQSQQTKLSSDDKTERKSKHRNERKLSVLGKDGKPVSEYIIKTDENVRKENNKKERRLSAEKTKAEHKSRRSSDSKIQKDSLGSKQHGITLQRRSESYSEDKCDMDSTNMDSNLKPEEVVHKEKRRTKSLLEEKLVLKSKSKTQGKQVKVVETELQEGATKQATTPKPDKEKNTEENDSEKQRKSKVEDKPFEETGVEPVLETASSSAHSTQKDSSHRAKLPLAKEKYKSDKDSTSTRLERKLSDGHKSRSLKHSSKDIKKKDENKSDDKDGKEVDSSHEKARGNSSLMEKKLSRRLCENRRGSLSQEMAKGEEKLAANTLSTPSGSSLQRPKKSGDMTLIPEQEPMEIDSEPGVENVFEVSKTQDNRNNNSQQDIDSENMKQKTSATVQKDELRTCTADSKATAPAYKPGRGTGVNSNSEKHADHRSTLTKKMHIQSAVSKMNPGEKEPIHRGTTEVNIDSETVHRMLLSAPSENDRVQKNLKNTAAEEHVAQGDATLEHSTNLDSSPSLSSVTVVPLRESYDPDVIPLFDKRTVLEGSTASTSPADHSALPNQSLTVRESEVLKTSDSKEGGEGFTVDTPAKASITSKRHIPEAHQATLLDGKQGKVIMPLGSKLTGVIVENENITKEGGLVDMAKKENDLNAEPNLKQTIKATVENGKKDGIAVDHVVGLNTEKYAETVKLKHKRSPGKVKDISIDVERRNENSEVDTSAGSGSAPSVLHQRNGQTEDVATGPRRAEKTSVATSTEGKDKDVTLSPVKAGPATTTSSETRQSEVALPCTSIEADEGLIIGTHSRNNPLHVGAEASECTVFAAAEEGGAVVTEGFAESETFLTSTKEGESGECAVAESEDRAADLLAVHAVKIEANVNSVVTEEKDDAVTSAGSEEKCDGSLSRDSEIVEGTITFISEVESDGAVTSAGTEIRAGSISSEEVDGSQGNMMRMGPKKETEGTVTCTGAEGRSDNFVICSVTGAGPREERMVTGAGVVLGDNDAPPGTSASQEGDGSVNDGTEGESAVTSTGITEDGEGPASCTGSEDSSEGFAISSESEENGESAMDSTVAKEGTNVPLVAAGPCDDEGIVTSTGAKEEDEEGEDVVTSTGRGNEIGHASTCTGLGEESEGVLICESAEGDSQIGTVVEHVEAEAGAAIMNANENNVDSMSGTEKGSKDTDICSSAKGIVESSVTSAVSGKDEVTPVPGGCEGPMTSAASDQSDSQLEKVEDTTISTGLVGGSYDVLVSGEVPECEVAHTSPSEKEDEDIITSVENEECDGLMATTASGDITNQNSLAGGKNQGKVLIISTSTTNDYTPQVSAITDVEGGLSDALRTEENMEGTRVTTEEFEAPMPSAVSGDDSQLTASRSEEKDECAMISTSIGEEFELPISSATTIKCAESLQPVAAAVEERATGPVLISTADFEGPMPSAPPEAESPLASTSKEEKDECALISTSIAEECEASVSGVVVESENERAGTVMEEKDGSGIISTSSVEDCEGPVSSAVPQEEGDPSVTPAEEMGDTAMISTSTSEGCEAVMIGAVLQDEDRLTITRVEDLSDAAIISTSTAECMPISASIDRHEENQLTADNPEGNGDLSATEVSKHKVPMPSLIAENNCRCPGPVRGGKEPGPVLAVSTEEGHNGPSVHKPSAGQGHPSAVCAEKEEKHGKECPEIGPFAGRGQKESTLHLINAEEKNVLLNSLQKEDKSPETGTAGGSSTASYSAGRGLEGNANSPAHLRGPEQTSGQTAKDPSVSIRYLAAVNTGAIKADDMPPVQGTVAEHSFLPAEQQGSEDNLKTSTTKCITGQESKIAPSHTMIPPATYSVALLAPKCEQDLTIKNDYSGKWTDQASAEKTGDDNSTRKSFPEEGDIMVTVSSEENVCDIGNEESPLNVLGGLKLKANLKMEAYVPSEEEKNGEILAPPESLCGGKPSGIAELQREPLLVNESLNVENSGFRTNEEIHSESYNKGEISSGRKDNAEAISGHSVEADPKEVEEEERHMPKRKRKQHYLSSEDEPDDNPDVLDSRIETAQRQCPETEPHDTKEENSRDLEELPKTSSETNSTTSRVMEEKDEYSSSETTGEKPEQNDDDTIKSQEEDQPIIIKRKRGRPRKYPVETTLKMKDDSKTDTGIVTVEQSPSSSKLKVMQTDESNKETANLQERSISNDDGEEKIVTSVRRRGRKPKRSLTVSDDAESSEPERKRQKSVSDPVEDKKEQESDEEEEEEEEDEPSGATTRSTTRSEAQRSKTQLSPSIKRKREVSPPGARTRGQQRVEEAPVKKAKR

binding [1]: binds
Substance: endogenous BOD1L (from UniProt Q8NFC6 1-3051)

binding (YFP-NLS-PFN1 (human)): binds
binding [1]: binds
Substance: endogenous SNF2H/SMARCA5 (from UniProt O60264 1-1052) (enzyme)

binding [2]: binds
Substance: SNF2H in transfected HEK293T cells (Fig. 2b) (from UniProt O60264 1-1052) (enzyme)

binding [3]: binds
Substance: endogenous PFN1 (profilin-1) of MCF-10A cells (from UniProt P07737 1-140)
